Patent publication US8771723B2, “Compositions for reducing gastro-intestinal methanogenesis in ruminants” (priority 2009, dated 2014)

Test: Feed intake, CO2/O2 exchange and heat production in respiration chambers
Type: in vivo, male Texel Cross lambs
Settings: measuring week in respiration chambers, main effect (Yes); for Feed intake: limit-fed
Protocol: After the adaptation period four animals (one block) were housed in indirect respiration calorimetry chambers for a week to determine gaseous exchange. In the following weeks a new block of sheep was introduced to the chambers each week. Each respiration chamber housed an individual sheep. The respiration calorimetry chambers used are described in detail in […] et al. (1987). […] Net production or consumption of these gases was calculated from the difference in concentrations between in and outgoing air multiplied by air flow and subsequently recalculated to standard circumstances (0° C., 101 kPa, no water vapour). […] Before morning feeding, orts were removed from the feed bins and weighed to determine voluntary feed intake. During the week in the respiration chambers, feed availability was restricted to 95% of the feed consumed by the animal consuming the least feed within a block in the week prior to housing in the respiration chambers. Feed restriction was applied to avoid interactions between the effect of the additives on DMI and the effect on methane production.

Compound | Feed intake [g/lamb/day] | CO2-production [l/kg^0.75/day] | Heat production [kJ/kg^0.75/day] | O2-consumption [l/kg^0.75/day]
5Ca(NO3)2•NH4NO3•10H2O [Nitrate] | 2.38 | 24.9 | 527 | 25.0
O=S(=O)([O-])[O-].[Mg+2] [Sulphate, MgSO4 (anhydrous)] | 2.38 | 26.1 | 555 | 26.3
